Assay results published in publication PMC8632885.
No constants are given. Whether binding was seen depends on the method and setting. Binding seen in cells or lysates may run through a third protein. Here binding means that the protein was enriched with, or labelled near, the bait; the list need not be complete.

Columns and labels:
[1] = target: T1, AtMP1 (first antimicrobial peptide from Anabas testudineus skin mucus fraction 2), biotinylated (Anabas testudineus); experiment: affinity purification with mass spectrometry; biotinylated peptide as bait, streptavidin beads, overnight at 4 °C; lysates (total, membrane, mitochondrial) of MCF7 and MDA-MB-231 in RIPA buffer; the results say that the cells were treated with the biotinylated peptides for 48 h before lysis; bands cut from SDS-PAGE by expected size, LC-MS/MS, Mascot score >= 20; LC-MS data of the samples combined; only the target purified
T1 sequence (peptide, biotin (NH2-reactive biotin, Biotin Labelling Kit NH2)): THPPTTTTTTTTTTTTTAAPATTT

[2] = target: T2, AtMP2 (second antimicrobial peptide from Anabas testudineus skin mucus fraction 2), biotinylated (Anabas testudineus); experiment: as above
T2 sequence (peptide, biotin (NH2-reactive biotin, Biotin Labelling Kit NH2)): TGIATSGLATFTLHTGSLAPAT

- binding [1]: binds
- binding [2]: binds
Substance: p53 (from UniProt P04637 1-393)
